The list does not hold the whole screen: it gathers tests that were run many times, whatever their T/C, doses with no T/C, and many T/C values between a quarter and a half above the control. Other doses and runs of a compound stand elsewhere. T/C gives the treated animals as a percentage of the vehicle group. Some entries give survivors of the animals treated and no T/C: the source holds a T/C of zero for them, seemingly a mark for toxic or unscored doses. Some survivor counts are full or nearly so, which does not show that the dose was tolerated: the source hardly ever lists a survival T/C far under the control, and the zero likely stands for such cases as well. Counts of survivors are from the toxicity check (mostly the fifth day) where no day follows; animals may have died later. Schedules are NCI's codes, read here as Q, the interval in days (D) or hours (H), X, the number of doses. Some schedules carry Z or #; the key to these is not given. Some molecules as drawn cover several salts, stereoisomers or complexes of the source; a dose is that of the sample tested. Marks such as (2×) count equal records among those shown. Some entries were tested several times; the results are listed from low to high. For survival time, this PubChem deposit counts one and a half times the control or more as active, and values a quarter to a half above the control carry no call in these data; other NCI protocols may use other cut-offs.

In the assay the test system is L1210 leukemia ip in BDF1 mice, survival T/C. As to the kind of experiment: NCI In Vivo Anticancer Drug Screen. Data for tumor model L1210 Leukemia (intraperitoneal) in B6D2F1 (BDF1) mice. The note with it: T/C endpoint: mean survival time, higher T/C = longer survival.
[1] abbreviates: dose: 80.0 mg/kg/injection, schedule: Q01DX001 (ip), vehicle: saline.
The mark [2] stands for this setting: dose: 100.0 mg/kg/injection, schedule: Q01DX001 (ip), vehicle: saline.
[3] abbreviates: dose: 200.0 mg/kg/injection, schedule: Q01DX001 (ip), vehicle: saline.
Where [4] appears, read: dose: 400.0 mg/kg/injection, schedule: Q01DX001 (ip), vehicle: saline.
The mark [5] stands for this setting: dose: 200.0 mg/kg/injection, schedule: Q01DX009 (ip), vehicle: saline with Tween-80.
The mark [6] stands for this setting: dose: 4.87 mg/kg/injection, schedule: Q01DX009 (ip), vehicle: saline.

Take `CCOC(=O)c1cc[n+](C)c2ccccc12`: the survivor count is, setting by setting: (dose: 75.0 mg/kg/injection, schedule: Q01DX001 (ip), vehicle: acetone) 6 of 6; (dose: 150.0 mg/kg/injection, schedule: Q04DX003 (ip), vehicle: acetone) 5 of 6; (dose: 300.0 mg/kg/injection, schedule: Q01DX001 (ip), vehicle: acetone) 0 of 6.
`c1ccc(N2CCNCC2)cc1` (tested in a mixture with another compound): the survivor count reads like this: under setting [1], 3 of 6 (2×); under setting [2], 1 of 4 (3×); under setting [3], 0 of 4 (2×) and 1 of 4; under setting [4], 0 of 4 (4×).
In the case of `c1ccc(-n2nc3c(c2OCCN2CCCC2)CCCc2ccccc2-3)cc1`, the survivor count reads like this: under setting [5], 0 of 6; (dose: 400.0 mg/kg/injection, schedule: Q01DX009 (ip), vehicle: saline with Tween-80) 0 of 6.
Consider `Nc1nc(N)c(N)c(=O)[nH]1`, for which the survivor count is 3 of 6 (dose: 200.0 mg/kg/injection, schedule: Q04DX003 (ip), vehicle: Klucel (hydroxypropylcellulose) (HPC)) and 0 of 6 (dose: 400.0 mg/kg/injection, schedule: Q04DX003 (ip), vehicle: Klucel (hydroxypropylcellulose) (HPC)).
Take `COc1cc2ccncc2cc1OCc1ccccc1`: the survivor count runs as follows: (dose: 200.0 mg/kg/injection, schedule: Q01DX009 (ip), vehicle: saline) 0 of 6; (dose: 400.0 mg/kg/injection, schedule: Q01DX009 (ip), vehicle: saline) 0 of 6.
With `CCN(CC)C(C)CNc1cc(C)nc(/N=C(\N)Nc2ccc(Cl)c(Cl)c2)n1` (configuration not stated), the survivor count is recorded as 4 of 6 (dose: 18.75 mg/kg/injection, schedule: Q01DX009 (ip), vehicle: Klucel (hydroxypropylcellulose) (HPC)); 4 of 6 (dose: 37.5 mg/kg/injection, schedule: Q01DX009 (ip), vehicle: Klucel (hydroxypropylcellulose) (HPC)); 0 of 6 (dose: 75.0 mg/kg/injection, schedule: Q01DX009 (ip), vehicle: Klucel (hydroxypropylcellulose) (HPC)); 1 of 6 (dose: 150.0 mg/kg/injection, schedule: Q01DX001 (ip), vehicle: other); 0 of 6 (dose: 150.0 mg/kg/injection, schedule: Q01DX009 (ip), vehicle: Klucel (hydroxypropylcellulose) (HPC)); 1 of 6 (dose: 300.0 mg/kg/injection, schedule: Q01DX001 (ip), vehicle: other).
Regarding `CC(C)(C)c1cc(N)cc(C(C)(C)C)c1O`, the survivor count (dose: 100.0 mg/kg/injection, schedule: Q04DX002 (ip), vehicle: saline with Tween-80) was 3 of 3.
In the case of `CNC(=O)NC(=O)C(C)(C)Oc1ccc(Cl)cc1`, the survivor count (dose: 400.0 mg/kg/injection, schedule: Q04DX003 (ip), vehicle: saline) is listed as 3 of 3.
As to `CCCCS(=O)(=O)c1nc2ccc([N+](=O)[O-])cc2s1`, the survivor count (dose: 400.0 mg/kg/injection, schedule: Q04DX002 (ip), vehicle: saline with Tween-80) is reported as 1 of 3.
For `Clc1cc(N2CC2)nc(N2CC2)n1`, the survivor count (dose: 2.14 mg/kg/injection, schedule: Q01DX009 (ip), vehicle: saline) was 6 of 6; the survivor count (dose: 3.25 mg/kg/injection, schedule: Q01DX009 (ip), vehicle: saline) is 6 of 6; the survivor count under setting [6] is listed as 6 of 6; the survivor count (dose: 6.5 mg/kg/injection, schedule: Q01DX009 (ip), vehicle: saline with Tween-80) was 6 of 6; the survivor count (dose: 13.0 mg/kg/injection, schedule: Q01DX009 (ip), vehicle: saline with Tween-80) is on record as 4 of 6; the survivor count (dose: 20.0 mg/kg/injection, schedule: Q01DX001 (ip), vehicle: saline) was 1 of 6. Also, the survivor count by setting is: (dose: 21.0 mg/kg/injection, schedule: Q04DX003 (ip), vehicle: saline) 2 of 6; (dose: 30.0 mg/kg/injection, schedule: Q04DX003 (ip), vehicle: saline) 3 of 6; (dose: 40.0 mg/kg/injection, schedule: Q01DX001 (ip), vehicle: saline) 0 of 6; under setting [1], 0 of 6; under setting [2], 0 of 6; under setting [3], 0 of 6. Moreover, the survivor count under setting [4] is 0 of 6. The T/C runs as follows: (dose: 3.12 mg/kg/injection, schedule: Q04DX003 (ip), vehicle: saline) 135 % of control; (dose: 4.12 mg/kg/injection, schedule: Q04DX003 (ip), vehicle: saline) 143 % of control; (dose: 4.5 mg/kg/injection, schedule: Q01DX009 (ip), vehicle: carboxymethylcellulose (CMC)) 140 % of control; under setting [6], 133 % of control; (dose: 5.0 mg/kg/injection, schedule: Q01DX001 (ip), vehicle: saline) 132 % of control; (dose: 7.0 mg/kg/injection, schedule: Q01DX001 (ip), vehicle: saline) 135 % of control. Besides, the T/C runs as follows: (dose: 10.0 mg/kg/injection, schedule: Q01DX001 (ip), vehicle: carboxymethylcellulose (CMC)) 129 % of control; (dose: 13.0 mg/kg/injection, schedule: Q04DX003 (ip), vehicle: saline) 128 % of control; (dose: 15.0 mg/kg/injection, schedule: Q01DX001 (ip), vehicle: carboxymethylcellulose (CMC)) 138 % of control.
For `N#Cc1cccc(/C=C/C=C\c2ccc([N+](=O)[O-])cc2)c1`, for the setting “dose: 400.0 mg/kg/injection, schedule: Q01DX009 (ip), vehicle: Klucel (hydroxypropylcellulose) (HPC)”, the survivor count is recorded as 6 of 6.
Take `O=NN(CCCl)C(=O)Nc1ccc(CCO)cc1`: the survivor count is, setting by setting: (dose: 37.5 mg/kg/injection, schedule: Q01DX009 (ip), vehicle: acetone) 0 of 6; (dose: 75.0 mg/kg/injection, schedule: Q01DX009 (ip), vehicle: acetone) 0 of 6; (dose: 150.0 mg/kg/injection, schedule: Q01DX009 (ip), vehicle: acetone) 0 of 6; (dose: 300.0 mg/kg/injection, schedule: Q01DX009 (ip), vehicle: acetone) 0 of 6; (dose: 600.0 mg/kg/injection, schedule: Q01DX009 (ip), vehicle: acetone) 0 of 6.
In the case of `CCN(CC)CCn1ccnc1C`, the survivor count (dose: 400.0 mg/kg/injection, schedule: Q01DX005 (ip), vehicle: saline) was 0 of 4.
With `COc1ccc(C(=O)Nc2ccc(F)cc2)cc1`, the survivor count (dose: 400.0 mg/kg/injection, schedule: Q01DX009 (ip), vehicle: carboxymethylcellulose (CMC)) is 5 of 6.
On to `O=C(Nc1cccc(C(F)(F)F)c1)c1ccc(C(=O)Nc2cccc(C(F)(F)F)c2)cc1`, for which the survivor count is recorded as 6 of 6 (dose: 100.0 mg/kg/injection, schedule: Q01DX009 (ip), vehicle: saline with Tween-80) and 5 of 6 under setting [5].
Turning to `Cc1ccc(/C(=N\N=C(N)N)C2CC2)cc1C`, the survivor count reads like this: (dose: 120.0 mg/kg/injection, schedule: Q01DX Z (ip), vehicle: methylcellulose (MC)) 0 of 6; (dose: 120.0 mg/kg/injection, schedule: Q01DX Z (oral), vehicle: methylcellulose (MC)) 5 of 6; (dose: 240.0 mg/kg/injection, schedule: Q01DX Z (oral), vehicle: methylcellulose (MC)) 3 of 6.
Consider `CC(=O)NC(CO)C(O)C(O)C(O)CO` (configuration not stated), for which the T/C (dose: 400.0 mg/kg/injection, schedule: Q04DX002 (ip), vehicle: saline) is 125 % of control.
For the molecule `Cc1cccc(C)c1NC(=S)NNC(=O)c1ccncc1`, the survivor count under setting [5] is recorded as 2 of 3.
`Cc1c2oc3c(C)c([N+](=O)[O-])cc(C(=O)NC4C(=O)NC(C(C)C)C(=O)N5CCCC5C(=O)N(C)CC(=O)N(C)C(C(C)C)C(=O)OC4C)c3nc-2c(C(=O)NC2C(=O)NC(C(C)C)C(=O)N3CCCC3C(=O)N(C)CC(=O)N(C)C(C(C)C)C(=O)OC2C)c(N)c1=O` (configuration not stated): the T/C is, setting by setting: (dose: 200.0 micrograms/kg/injection, schedule: Q01DX009 (ip), vehicle: saline + alcohol) 127 % of control; (dose: 300.0 micrograms/kg/injection, schedule: Q04DX003 (ip), vehicle: saline + alcohol) 143 % of control. For the same molecule, the survivor count (dose: 1600.0 micrograms/kg/injection, schedule: Q04DX003 (ip), vehicle: saline + alcohol) was 8 of 8.

(Values after PubChem BioAssay AID248 (DTP/NCI, 2004).)
